PubChem BioAssay AID1053208 | Peter MacCallum Cancer Centre – 2014

Aim: 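Synthetic lethal interactions between gene loss and doxorubicin in osteosarcoma cells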 (primary screen)
Cells: mouse osteosarcoma cells, early-passage culture from an engineered mouse model of fibroblastic bone tumour
Reagent: siRNA pool against mouse genes, 40 nM
Duration: about 120 h (48 h before drug, then 72 h with drug)
Challenge: doxorubicin 100 nM for 72 h, roughly 30-40% inhibitory dose
Detection: 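Luminescent ATP signal taken as viability with or without 100 nM doxorubicin for 72 h; mean of two wells set against non-targeting siRNA and turned into robust z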
Scale: viability z-score with doxorubicin: higher = more viable cells under doxorubicin; viability z-score without drug: higher = more viable cells with knock-down alone
Hit rule: 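a pool counts as active when its viability z-score with doxorubicin is -2 or below and its z-score without drug lies between -2 and 2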
This is a random part of about 17,000 reagents tested. 788 of them (4.7%) count as active. 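Calls rest on z-score classes alone; an extra cut-off of viability at most 70% of control was not applied to them.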 A number with no mark means an inactive call. Further read-outs or replicates are left out here.

Prokr2 → combined z-score class: no change with or without drug; viability z-score with doxorubicin: -0.56; viability z-score without drug: -0.84
Pex12 → combined z-score class: high cell count without drug only; viability z-score with doxorubicin: 0.22; viability z-score without drug: 2.87
Cwc22 → combined z-score class: low cell count with and without drug; viability z-score with doxorubicin: -3.04; viability z-score without drug: -2.87
Alb → combined z-score class: no change with or without drug; viability z-score with doxorubicin: -0.22; viability z-score without drug: 0.17
Trappc2l → combined z-score class: no change with or without drug; viability z-score with doxorubicin: 0.22; viability z-score without drug: 1.85
Serpina1a → combined z-score class: no change with or without drug; viability z-score with doxorubicin: 0; viability z-score without drug: 0.51
Nsmce1 → combined z-score class: no change with or without drug; viability z-score with doxorubicin: -0.22; viability z-score without drug: -0.34
Psg23 → combined z-score class: no change with or without drug; viability z-score with doxorubicin: 0.67; viability z-score without drug: 0.51
Or6c210 → combined z-score class: no change with or without drug; viability z-score with doxorubicin: -0.67; viability z-score without drug: -0.17
Zfp454 → combined z-score class: no change with or without drug; viability z-score with doxorubicin: 0.22; viability z-score without drug: 0.67
Spice1 → combined z-score class: no change with or without drug; viability z-score with doxorubicin: 0.45; viability z-score without drug: 0.17
Plxna4 → combined z-score class: high cell count with doxorubicin only; viability z-score with doxorubicin: 2.25; viability z-score without drug: 0.84
Ace → combined z-score class: no change with or without drug; viability z-score with doxorubicin: 0.22; viability z-score without drug: -0.84
Apoo → combined z-score class: no change with or without drug; viability z-score with doxorubicin: -0.22; viability z-score without drug: 0

In a second layout: results already given.
{"target":"Alb","combined z-score class":"no change with or without drug","viability z-score with doxorubicin":-0.22,"viability z-score without drug":0.17}
{"target":"Trappc2l","combined z-score class":"no change with or without drug","viability z-score with doxorubicin":0.22,"viability z-score without drug":1.85}

Continued.
Mblac1 → combined z-score class: no change with or without drug; viability z-score with doxorubicin: -0.22; viability z-score without drug: 0.17
Olah → combined z-score class: high cell count with doxorubicin only; viability z-score with doxorubicin: 2.02; viability z-score without drug: -0.17
Or2y3 → combined z-score class: no change with or without drug; viability z-score with doxorubicin: -0.45; viability z-score without drug: -1.52
Myoz2 → combined z-score class: no change with or without drug; viability z-score with doxorubicin: 0.45; viability z-score without drug: 0.84
B3gat2 → combined z-score class: no change with or without drug; viability z-score with doxorubicin: -0.22; viability z-score without drug: 0.84
Zfp1006 → combined z-score class: high cell count with doxorubicin only; viability z-score with doxorubicin: 2.14; viability z-score without drug: 0.17
Srms → combined z-score class: no change with or without drug; viability z-score with doxorubicin: -0.11; viability z-score without drug: -0.51
Fam110c → combined z-score class: no change with or without drug; viability z-score with doxorubicin: 0.22; viability z-score without drug: 0.17
Glyctk → combined z-score class: no change with or without drug; viability z-score with doxorubicin: 0.67; viability z-score without drug: 1.35
Vmn1r9 → combined z-score class: low cell count with doxorubicin only (active); viability z-score with doxorubicin: -2.7; viability z-score without drug: -0.67
Cacna2d3 → combined z-score class: no change with or without drug; viability z-score with doxorubicin: -1.35; viability z-score without drug: -0.34
Ppp1cb → combined z-score class: no change with or without drug; viability z-score with doxorubicin: 0.22; viability z-score without drug: -1.01
Tbx5 → combined z-score class: no change with or without drug; viability z-score with doxorubicin: -0.79; viability z-score without drug: 0.17
Zfy1 → combined z-score class: high cell count with doxorubicin only; viability z-score with doxorubicin: 3.15; viability z-score without drug: 1.85
